Data from publication PMC12624062.

By UniProt entry, the sequences of proteins in these tests, tags left out.
UniProt Q8CDG1: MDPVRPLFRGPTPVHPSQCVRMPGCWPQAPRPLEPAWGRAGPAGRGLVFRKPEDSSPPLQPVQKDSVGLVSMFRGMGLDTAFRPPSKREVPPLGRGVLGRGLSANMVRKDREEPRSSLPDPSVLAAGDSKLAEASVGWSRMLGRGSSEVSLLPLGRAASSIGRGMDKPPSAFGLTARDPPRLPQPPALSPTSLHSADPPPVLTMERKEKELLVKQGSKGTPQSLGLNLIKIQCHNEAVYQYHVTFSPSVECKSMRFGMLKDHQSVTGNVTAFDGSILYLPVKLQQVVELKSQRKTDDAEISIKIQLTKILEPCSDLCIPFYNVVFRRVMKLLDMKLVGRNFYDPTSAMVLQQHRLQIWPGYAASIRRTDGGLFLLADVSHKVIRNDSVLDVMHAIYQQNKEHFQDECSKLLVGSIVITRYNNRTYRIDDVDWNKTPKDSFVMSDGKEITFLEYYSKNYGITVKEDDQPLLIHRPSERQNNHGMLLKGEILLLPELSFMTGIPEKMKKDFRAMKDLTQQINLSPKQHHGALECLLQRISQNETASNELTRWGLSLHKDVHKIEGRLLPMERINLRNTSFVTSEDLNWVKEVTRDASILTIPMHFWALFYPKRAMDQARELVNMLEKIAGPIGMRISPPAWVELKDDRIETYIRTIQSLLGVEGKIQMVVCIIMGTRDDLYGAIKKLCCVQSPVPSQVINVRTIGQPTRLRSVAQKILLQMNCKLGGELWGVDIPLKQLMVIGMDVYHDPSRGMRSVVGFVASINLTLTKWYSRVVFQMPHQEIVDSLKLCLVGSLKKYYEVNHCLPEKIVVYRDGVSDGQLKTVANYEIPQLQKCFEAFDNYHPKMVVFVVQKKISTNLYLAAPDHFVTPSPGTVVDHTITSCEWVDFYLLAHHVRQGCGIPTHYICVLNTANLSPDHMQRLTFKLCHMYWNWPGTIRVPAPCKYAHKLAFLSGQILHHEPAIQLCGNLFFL

Key:
[1] = target: PIWIL2 (endogenous, mouse testis) (mouse (endogenous in testis)) (UniProt Q8CDG1); assay: affinity purification with mass spectrometry; P20 wild-type mouse testis lysates; IP with PIWIL2, ASZ1 or TDRD1 antibodies against rabbit IgG control; Protein A/G agarose; LC-MS; n = 3
[2] = target: T1, ASZ1 (endogenous, mouse testis) (mouse (endogenous in testis)) (UniProt Q8VD46); assay: as above
T1 sequence: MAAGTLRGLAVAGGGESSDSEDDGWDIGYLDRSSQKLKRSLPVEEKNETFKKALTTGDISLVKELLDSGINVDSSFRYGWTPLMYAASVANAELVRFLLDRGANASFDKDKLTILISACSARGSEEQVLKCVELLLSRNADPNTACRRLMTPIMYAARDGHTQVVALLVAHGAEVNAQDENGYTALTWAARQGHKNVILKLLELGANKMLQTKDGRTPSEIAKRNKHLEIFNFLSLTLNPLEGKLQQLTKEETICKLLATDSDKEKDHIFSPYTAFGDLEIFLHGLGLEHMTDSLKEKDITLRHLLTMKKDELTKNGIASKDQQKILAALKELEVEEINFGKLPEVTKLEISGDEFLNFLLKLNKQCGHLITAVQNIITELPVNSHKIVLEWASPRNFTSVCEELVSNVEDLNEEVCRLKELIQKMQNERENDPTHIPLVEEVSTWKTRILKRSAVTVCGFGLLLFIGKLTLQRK

B1: MOV10L1 (endogenous, mouse testis) (protein, UniProt Q99MV5 1-1187)
chain: MIDDLIYFSNDAVTSTVLLNVGQEVIAVVEENKVSNGLKAIRVEAVSDKWEDDSKNSSKGLSDSSPRVLIGCVTSMLEGAGYISQTTYFSLESVCEGFHPCKGDWVEAEYWIRPGTWSSEAISVKPLRYKRVDKVCISSLCGRNGVIEDSIFFSLDSLKLPEGYIPRRHDIVNAVVVESSQSCYIWRALCMTPVKRDATLGEAPQEPYGALLLKNKGDIEVTRMTSFGTLKEGESKSIVIWIENKGKFSRELVSCRLANWDKAHQFRFETQGRSKSCPGAAAGSVPEGENVNSLNHHREDKTDEIPESRLANSTEISPDGCACKEESREKGNTPEKQEPEPGGLIPPGEKTHIVVTCSAKNPGRCKELLLLCFSDFLIGRHLEVSVVSSEEALIAVREPFSWKKPKSSQTLVSAKTTVVVTTQKRNSRRQLPSFLPQYPIPDRLKKCVEQKIDILTFQPLLAELLNMSNYKEKFSTLLWLEEIHAEIELKEYNMSRVVLKRKGDLLVLEVPGLAESRPSLYAGDKLILKSQEYNGHVIEYIGYVMEIHEEDVTLKLNPGFEQMYNFEPMDVEFTYNRTTSRRCHYALEQVIHLGVKVLFPEEIILQSPQVTGNWSLAQDTKNDGQSITNITRNDGQSMTKVTRNDSQSITNIIRNDGQSITNVTRNDGQPITKVTRNNSQSITNITRNDGQPITKNKKTVKDQTKHTTEERHVGTTDQPEKASSTAETMDEIQIPKARDKEFFNPVLNENQKLAVRRILSGDCRPLPYILFGPPGTGKTVTIIEAVLQVHYALPDSRILVCAPSNSAADLVCLRLHESKVPKPAAMVRVNATCRFEETIIDAIKPYCRDGEDIWRASRFRIIITTCSSAGLFYQIGVRVGYFTHVFVDEAGQASEPECLIPLGLISDINGQIVLAGDPMQLGPVIKSRLAMAYGLNVSMLERLMSRPAYLRDENAFGACGAYNPLLVTKLVKNYRSHSALLALPSRLFYHRELEVCADPKVVTSLLGWEKLPRKGFPLIFHGVRGNEAREGRSPSWFSPAEAVQVMRYCCLLARSVSSQVSSKDIGVITPYRKQVEKIKILLRNVDLTDIKVGSVEEFQGQEYLVIVISTVRSNEDRFEDDRYFLGFLSNSKRFNVAITRPKALLIILGNPHVLVRDPCFGALLEYSVSNGVYTGCDLPPELQALQK
[1]
  binding: binds
[2]
  binding: binds

B2: TDRD5 (endogenous, mouse testis) (protein, UniProt Q5VCS6 1-1040)
chain: MSEQERIQDCLRKEIRSLLISTKDGLTPQQLEKEYLLMVGNHLPLRILGYRSTMELVLDMPDVVSVCPGGDGTVILKAIPDESTKGIASLVAKQRRSHKVRNSMPKGRPSICSGRVPYRGRVPPILPAVVKSELKDLLALSPVLLSDFEKAFARRFGRSFQYMQYGFLSMFEVLNAASDVISVEQTRAGSLLTLKKSVSEDKQRGWPAGKVFTQPFRMKQQGSYSTGFPVMKAHFSQPISNMEPPKQVLSMAKTPTFNSVEASRLNHTEKLNQLESTFKSVIAQIGPGGTVDPELKRKIQFVVSKFPQGLFISKLLGEFELTFKEQLSPKQLGFLNVTELVGALSDILRVEFSEERQDLLVFDADLKPLPSGGPLSSVRNSCLVQPDKKTEANPWTSSLSRNSLSTVAVKKTTWDCPLKNQKEPEQKIYKKPNLVVKPLQLQVETNKPQLSLSVANHDIPPDAVRAKKLCRLPPLDTSTLVGVFVEYIISPSQFYIRIYSRDSSELLEDMMIEMRRCYSNQLVSDRYIMPEYFIQPGHLCCVKISEDKWWYRVIIHRILGKKEVEVFYPDFGNIGTVQKSSLRFLKCCYTKLPAQAIPCSLAWVRPAEEHWTARAILHFQKLCGLKPLVGVVDEYIDGILNIFLCDTSSNEDVYFHHVLRTEGHAIVCRENAPSKGFRDFNPPALYTNASSAGDMVLTDLGHPAQQHYLNEDQEILQQAQQDINDGKCISYLKSAPKELLKDSKLSSLKTHKSCEEDPRWSILQPKDLKEENEDEVPTGMPCLESVTIGDDVWDENWLPLQAKMGKAGSPASQLFTSNLVGKKQYQTGGEMAQKDWCFSTSKDIWDDSWQPLGLANDVKGGIHTPEGPIAQEKNTSTTRIQQQPDLQYPLDSSTLPKLEEFYISLIKSQQSAERSQSEPASIQTHAGRAASKALSSTPAVGDSPENHSGSVESSPGSLKKEDVSNSRAEATAKDKSQGAIDQLSFILSPQHQISQKLYIPRSTATAVLGAAARLATSRSLLHWYPSVKGGKLEAERDGVK
[1]
  binding: binds
[2]
  binding: binds weakly

These are yes or no findings as the source states them, for the method shown. In cells and extracts the contact can be indirect. These calls come from enrichment with a bait or labelling near it, and not all partners need be listed.
